“Also recorded” adds a separate entry of the source. At least one structure is not confirmed: it was looked up by name or label, or the drawing left a doubt.
Columns and labels:
[1] = test system: rVSV-ΔG-mCherry-infected PBMCs from older donors; experiment: Cytokine levels in supernatant of rVSV-ΔG-mCherry-infected cells (FirePlex-HT Human Cytokines Panel 1); format: cell-based; details: vs old untreated controls, 10×MOI rVSV, 24 h
[2] = test system: rVSV-ΔG-mCherry-infected PBMCs from older donors; format: cell-based, human
[3] = test system: T cells from older donors; format: cell-based, human
[4] = test system: lipopolysaccharide-induced septic shock; details: mice; cited from earlier work
[5] = target: papain-like protease of MERS-CoV (Middle East respiratory syndrome-related coronavirus, UniProt K9N7C7); details: cited from earlier work
[6] = target: papain-like protease of SARS-CoV (Severe acute respiratory syndrome coronavirus, UniProt P0C6X7); details: cited from earlier work

Amino acid sequences for entries named in this document (tags omitted). Residues count along the entry.
UniProt K9N7C7, 1484-1802 limits assumed: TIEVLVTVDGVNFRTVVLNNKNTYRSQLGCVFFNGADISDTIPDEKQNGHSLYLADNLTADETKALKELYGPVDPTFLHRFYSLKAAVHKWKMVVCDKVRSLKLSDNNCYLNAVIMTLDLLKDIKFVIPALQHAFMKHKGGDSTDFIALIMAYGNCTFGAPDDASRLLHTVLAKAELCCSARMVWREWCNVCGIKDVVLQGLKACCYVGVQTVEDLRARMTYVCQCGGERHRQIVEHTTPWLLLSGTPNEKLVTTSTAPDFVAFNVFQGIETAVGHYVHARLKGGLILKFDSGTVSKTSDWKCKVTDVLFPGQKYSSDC

## CCN(CC)C(=S)SSC(=S)N(CC)CC [disulfiram]
[1]; downward dose response, P<=0.04 from 0.1 μM to 25.02 μM
  MCP1 level in cellular supernatant: significantly decreased
[1]; in at least 2 doses
  IL-6 level in cellular supernatant: significantly decreased
  TNFα level in cellular supernatant: significantly decreased
[1]; significant from 0.1 μM to 25.02 μM
  IL-1β level in cellular supernatant: significantly decreased
[2]
  apparent viral load response of PBMCs exposed to 10×MOI rVSV: appear to be responding to a lower viral load
  machine learning model prediction of monocyte response to viral load (MOI): responded at a lower MOI than did untreated control cells
  percentage of the mitochondria with a reticular shape: significantly reduced
[3]
  "off-age" T-cell score: significant effect but only in the higher doses
  "on-age" T-cell score: significantly shifted in the young direction
  T-cell age score: significant rejuvenating effect; also recorded: significant, beneficial reductions
[4]
  protection from lethal lipopolysaccharide-induced septic shock: protect mice from lethal lipopolysaccharide-induced septic shock
[5]
  inhibition of papain-like protease: inhibit
[6]
  inhibition of papain-like protease: inhibit

Reference: US11033516B1, “Combination therapies with disulfiram” (Spring Discovery, Inc., priority 2020, dated 2021)
